# This is one part of the list.
# Sequences of proteins named here, by UniProt entry; tags and fusion partners are left off.
# UniProt Q0JBA9, entry or part of it: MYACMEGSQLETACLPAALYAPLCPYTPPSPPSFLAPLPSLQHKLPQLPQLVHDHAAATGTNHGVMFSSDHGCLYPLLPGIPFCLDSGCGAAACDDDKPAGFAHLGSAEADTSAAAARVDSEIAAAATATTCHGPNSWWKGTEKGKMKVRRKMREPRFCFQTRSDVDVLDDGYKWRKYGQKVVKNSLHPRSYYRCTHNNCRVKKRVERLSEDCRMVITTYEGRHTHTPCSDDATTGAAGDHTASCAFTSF
# Target: OsWRKY34 (Oryza sativa, UniProt Q0JBA9 1-250)
# Assay: protein-binding microarray (RPBM); PBS, 2% BSA, 51.3 ng/ul salmon testes DNA, 50 uM zinc acetate, 200 nM TF, 25 C, 1 h; high values mean tight binding
# Conditions: protein: recombinant; tags: N-terminal polyhistidine and DsRed monomer fusion (pET32a); label: CyDye5-dUTP incorporated in the synthesized complementary strand; 3' TTTTT single-stranded linker to array surface; dsDNA, one strand shown
# Outline: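 The binding signal for each feature is its fluorescence intensity in arbitrary units. An Axon 4000B scanner was used to read a custom Agilent array that had been made double-stranded with Cy5-dUTP primer extension, blocked with 2% BSA, incubated at 25 °C for 1 h with 200 nM protein in PBS, 2% BSA, salmon testes DNA and 50 µM zinc acetate, and washed. The protein was an N-terminal polyhistidine–DsRed transcription factor fusion from E. coli BL21-CodonPlus, purified on Ni–NTA.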
row,Sequence,binding signal
1,CCCCTCGCCGCCCTCTCTCTCACAGTCTCACGCATCCCATCGGAGTCACCTAGTGCAG,8440 fluorescence intensity (a.u.)
2,GTGGTTTACTTTCTCATCCTAGGTAGCTTGTCTCCATTGTCGGAGTCACCTAGTGCAG,8950 fluorescence intensity (a.u.)
3,CACCTGCGCCCACCGCCTCGCTCGATCGCCACCGCACCACCGGAGTCACCTAGTGCAG,8150 fluorescence intensity (a.u.)
4,TTTTTTCAGTTGAATTTATCCCTTTTTTCCCTTAATTCGTCGGAGTCACCTAGTGCAG,10900 fluorescence intensity (a.u.)
5,TGTTCCTCTACTCGATTACGATGTTCCTGGAGTAATTTTCCGGAGTCACCTAGTGCAG,8540 fluorescence intensity (a.u.)
6,GTGATCTGAATTCCTTTTTTTTTTTCCATCTCGTTTGCTGCGGAGTCACCTAGTGCAG,9560 fluorescence intensity (a.u.)
7,CTCACGCATGCAAGTGCATGTGCACACTCACACCAAGTAACGGAGTCACCTAGTGCAG,8470 fluorescence intensity (a.u.)
8,TAATTCTCTCATTCCTCTCTCTGTCTCTCTCATCGGTTCTCGGAGTCACCTAGTGCAG,11500 fluorescence intensity (a.u.)
9,TGACTTTCTTACCATGCACTTACCTTACCATGTACTAGTACGGAGTCACCTAGTGCAG,9420 fluorescence intensity (a.u.)
10,TTCCGCAAAACCTGACTTCTTTACTTGTTTATGCAGATGACGGAGTCACCTAGTGCAG,8140 fluorescence intensity (a.u.)
11,AGTAAGTGTGCTTTGCTCGTAATACTCCTTTCTTTTTCTGCGGAGTCACCTAGTGCAG,8090 fluorescence intensity (a.u.)
12,CCCGGTCAGTCAAACTTCCGGATCGTGTCCTGTTTGACTCCGGAGTCACCTAGTGCAG,10700 fluorescence intensity (a.u.)
13,TACTACTCCCTCCGTTTCAAAATGTTTGACACCGTTGACTCGGAGTCACCTAGTGCAG,13100 fluorescence intensity (a.u.)
14,CCACCACCACTCCATCACAGTCTGCTCATTAGCTCGAGACCGGAGTCACCTAGTGCAG,8340 fluorescence intensity (a.u.)
15,CTTGGCTGTTCTTGGGTGGGTGAGGTGGGGCGGTCGGATCCGGAGTCACCTAGTGCAG,17100 fluorescence intensity (a.u.)
16,GGTGGAGGCGGGCGCGGTGGAGGCGGGGAGGAAGGGGAGCCGGAGTCACCTAGTGCAG,15100 fluorescence intensity (a.u.)
17,GGTTTTGTATCCTTCAAACCTGTCACAAGCTGTCATATTTCGGAGTCACCTAGTGCAG,8860 fluorescence intensity (a.u.)
18,GCCGCCGCCGCCGCCGCCGCCTTCCGCATCGTCGCCGTCGCGGAGTCACCTAGTGCAG,8550 fluorescence intensity (a.u.)
19,GGCATTATTTCTATCCATCCGTACGAGATTCCTGTGTTTACGGAGTCACCTAGTGCAG,8740 fluorescence intensity (a.u.)
20,CTTCCCCGCGCTGACCGAGCTTCGCGATCTAAAAGTCAAACGGAGTCACCTAGTGCAG,9280 fluorescence intensity (a.u.)
21,CGGCTCGACGCCCACCCGCAAACCCTCGCATTTCCCATCTCGGAGTCACCTAGTGCAG,8300 fluorescence intensity (a.u.)
22,GTGACCTCTGCAATGCCATTGCCATGTTCTCTCTCTAGATCGGAGTCACCTAGTGCAG,8530 fluorescence intensity (a.u.)
23,TGTCATATCATCTCTGTTACTGTTTGGTGCACCTTTTTTTCGGAGTCACCTAGTGCAG,9100 fluorescence intensity (a.u.)
24,TGCACCACTCACCCTGCCACGCGCTATATATGGCCACCACCGGAGTCACCTAGTGCAG,8280 fluorescence intensity (a.u.)
25,AGTATGATAATCTTGTTTGATGGGATTTGCAGTGCATTTCCGGAGTCACCTAGTGCAG,8040 fluorescence intensity (a.u.)
26,GAACCGCGCACGAATCCCTCACGACCGTCCACGCCTCGCGCGGAGTCACCTAGTGCAG,8040 fluorescence intensity (a.u.)
27,ACTTATTTTCAGAATTCTGAACCTTTTAACCATGCCAGCCCGGAGTCACCTAGTGCAG,10400 fluorescence intensity (a.u.)

row,Sequence,binding signal
1,CGCAGGGTGGTGGTGGTACTTCCGTAATTTCCTTCCGATTCGGAGTCACCTAGTGCAG,16400 fluorescence intensity (a.u.)
2,GGATAGACTTTTCAGCTTTTTTTTTGTTTGTTTGTTAAATCGGAGTCACCTAGTGCAG,9200 fluorescence intensity (a.u.)
3,CTCCAACGAAATCTTCGCCGTGTCAACCCGCGCCTCCGATCGGAGTCACCTAGTGCAG,8380 fluorescence intensity (a.u.)
4,ATCTTGTGTCTTGATCTATTGTTCCGTGTCCCCTCTCCTCCGGAGTCACCTAGTGCAG,10000 fluorescence intensity (a.u.)
5,TATCCTGTAACATGTTACAATCATTGTTCTTGCGCTAAGCCGGAGTCACCTAGTGCAG,8530 fluorescence intensity (a.u.)
6,ATACTCTCTCTGTAGGTACATCTCTCTACCATCTCTGTCGCGGAGTCACCTAGTGCAG,9840 fluorescence intensity (a.u.)
7,TAAGTGGGCAACCCTCACCATATCTCCTTTTGCCTTTTATCGGAGTCACCTAGTGCAG,8900 fluorescence intensity (a.u.)
8,GTTATATATCGTTTTATTTTATTTAAGTTTGTTTCTATAACGGAGTCACCTAGTGCAG,9860 fluorescence intensity (a.u.)
9,TCCTCTCATCTCCCTTTTTTTTTCTTCTCTTCGCGAGCTCCGGAGTCACCTAGTGCAG,8620 fluorescence intensity (a.u.)
10,CTCGAGCCCTTGATCATATCCTTTTCTTCCTTGTCCACCACGGAGTCACCTAGTGCAG,9460 fluorescence intensity (a.u.)
11,CCTTTTTCTCACTTAGTAGGTGCCATCTAATGCCCTTGATCGGAGTCACCTAGTGCAG,9830 fluorescence intensity (a.u.)
12,TATTGATCTGACGATCTAATTGTGGTTATATGTGTTCTTGCGGAGTCACCTAGTGCAG,9300 fluorescence intensity (a.u.)
13,GTCACCGTCTCGTCTCCGTCTCCGCCGCTCGTCGTCGACCCGGAGTCACCTAGTGCAG,12600 fluorescence intensity (a.u.)
14,AAAACCGATCCGTTCTCATCAAAACCGCACTGTGTTTTGTCGGAGTCACCTAGTGCAG,8250 fluorescence intensity (a.u.)
15,GTGGACTTGTATCTGCCAGTGATCCTCATGCTTTTTCAGTCGGAGTCACCTAGTGCAG,8780 fluorescence intensity (a.u.)
16,ATCTCCTCTCGACCACTAACATTTTAGTCACCTTGTCTCCCGGAGTCACCTAGTGCAG,11400 fluorescence intensity (a.u.)
17,AGGCTATTTCCCACGTTCCCGCCCCGTTGGCCAAATCTCTCGGAGTCACCTAGTGCAG,9860 fluorescence intensity (a.u.)
18,GTCCGCTTTTATCCGCTCGCAACCCGGCCAACACAACATTCGGAGTCACCTAGTGCAG,15900 fluorescence intensity (a.u.)
19,TTGGTTGGTTGGTTTGGTGGGCGGCGGTGCCGGAGGAAGACGGAGTCACCTAGTGCAG,21900 fluorescence intensity (a.u.)
20,CCCGCCTCACCTCACCTCACCTCACCTCTCACTCACTCACCGGAGTCACCTAGTGCAG,10100 fluorescence intensity (a.u.)
21,CATGTCCGGTTTTCTTTGCCTTGCTTTGATCAATTCATCTCGGAGTCACCTAGTGCAG,15300 fluorescence intensity (a.u.)
22,CTCTCCTCGAGTCTCCTCTCCACCCTGGCAGTGTTATTGTCGGAGTCACCTAGTGCAG,8750 fluorescence intensity (a.u.)
23,TAACTAACACTCTCTCTAAAATTCACATTTTCTCTCATTTCGGAGTCACCTAGTGCAG,8760 fluorescence intensity (a.u.)
24,GCCCATTTTTTTTTCTTTTTCCAATTTTCAAATTTATTCTCGGAGTCACCTAGTGCAG,8610 fluorescence intensity (a.u.)
25,TATCGATACGTGACCGTGTTGCCGTTTCTTCTTTCTTTTTCGGAGTCACCTAGTGCAG,8410 fluorescence intensity (a.u.)
26,AAGTAGTTTGTTCTCACTCCTCTTTGTTATAGTGTTATACCGGAGTCACCTAGTGCAG,8820 fluorescence intensity (a.u.)
27,CTTTCTTTGTTTTCTTGCGCTTCCTCCTCGGCTGAGCTCACGGAGTCACCTAGTGCAG,8770 fluorescence intensity (a.u.)

# Part of the list above in another layout:
row	Sequence	binding signal
21	CATGTCCGGTTTTCTTTGCCTTGCTTTGATCAATTCATCTCGGAGTCACCTAGTGCAG	15300 fluorescence intensity (a.u.)
23	TAACTAACACTCTCTCTAAAATTCACATTTTCTCTCATTTCGGAGTCACCTAGTGCAG	8760 fluorescence intensity (a.u.)
